Counter-ions that a name gives are not always drawn. The list shows a part of the results. This data set is noisy: repeats of one test often differ as much as different tests do.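 The cells were human embryonic kidney cells carrying a Renilla luciferase gene, driven by the HSV-TK promoter, on a plasmid put in briefly by transfection. This is the first-round screen of about ten thousand compounds, looking for ones that raise reporter output.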

From the supplement of paper PMC7024190 come the findings set out here.

This assay relates to HEK 293FT. Nature of the assay: log relative Renilla luciferase luminescence (reporter expression vs reference, reference not stated) (log (base not stated)); higher = higher recombinant reporter expression. The note with it: 10 µM; time after transfection 48 h.
Consider `CC1CC(OC(=O)C(O)c2ccccc2)CC(C)(C)C1` (configuration not stated) [cyclandelate], for which the log stood at 0.1.

`Cc1oncc1C(=O)Nc1ccc(C(F)(F)F)cc1` [leflunomide]: the log was -0.102. Regarding `O=C(O)c1cccnc1Nc1cccc(C(F)(F)F)c1` [niflumic acid], the log is -0.0736. In the case of `O=C(O)c1cccc(O)c1O` [pyrocatechuic acid] it was -0.00241; in that of `CC(CCc1ccccc1)NCC(O)c1ccc(O)c(C(N)=O)c1` (configuration not stated) [labetalol hydrochloride], 0.0488; in that of `CCOC(=O)[C@H](CCc1ccccc1)N[C@@H](C)C(=O)N1Cc2ccccc2C[C@H]1C(=O)O` [quinapril hydrochloride], 0.0126. On to `Cc1c[nH]c2ccccc12` [skatole], for which the log is 0.0313. With `O=c1cc(-c2ccc(O)cc2)oc2ccc(O)cc12` [6,4'-dihydroxyflavone], the log was found to be 0.102.

In the case of `CC(=O)NS(=O)(=O)c1ccc(NC(=O)c2ccccc2C(=O)O)cc1` [phthalylsulfacetamide], the log was -0.212. With `CC[C@H](C)[C@H](N)C1=N[C@H](C(=O)N[C@@H](CC(C)C)C(=O)N[C@H](CCC(=O)O)C(=O)N[C@H](C(=O)N[C@H]2CCCCNC(=O)[C@H](CC(N)=O)NC(=O)[C@@H](CC(=O)O)NC(=O)[C@H](Cc3cnc[nH]3)NC(=O)[C@@H](Cc3ccccc3)NC(=O)[C@H]([C@@H](C)CC)NC(=O)[C@@H](CCCN)NC2=O)[C@@H](C)CC)CS1` [bacitracin], the log is -0.0177. Take `O=C(CCc1ccc(O)cc1)c1c(O)cc(O)cc1O` [phloretin]: the log turned out to be 0.229.

With `C=CC(C)(O)CCC1C(=C)CC(OC(C)=O)C2C(C)(C)CCCC12C` (configuration not stated) [larixol acetate], the log came to 0.197.

Consider `CN1CCN(CCCN2c3ccccc3Sc3ccc(C(F)(F)F)cc32)CC1` [trifluoperazine hydrochloride], for which the log was -0.114. On to `COc1ccc(OC)c(C(O)CNC(=O)CN)c1` (configuration not stated) [midodrine hydrochloride], for which the log is -0.147. Turning to `CC(S)C(=O)NCC(=O)O` (configuration not stated) [tiopronin], the log was 0.0724.

Take `COC(=O)C[C@H]1C(C)(C)C2(O)OC34CC2C(=O)[C@]1(C)C3CC[C@]1(C)C4=CC(=O)O[C@H]1c1ccoc1` (stereo partly drawn) [8beta-hydroxycarapin, 3,8-hemiacetal]: the log was -0.218. In the case of `CNC[C@H](O)c1ccc(O)c(O)c1` [epinephrine bitartrate], the log is -0.254. As to `Cn1c(=O)c2nc(C3CCCC3)[nH]c2n(C)c1=O` [8-cyclopentyltheophylline], the log worked out at 0.0279.

As for `O=C1c2ccc(O)c(O)c2C(=O)c2c(O)ccc(O)c21` [quinalizarin], the log was 0.0238. As for `COc1cc(/C=C/C(N)=O)cc(OC)c1OC` [cintriamide], the log is -0.152. `CN(C(=O)C(Cl)Cl)c1ccc(OC(=O)c2ccco2)cc1` [diloxanide furoate]: the log was -0.0105. For `Oc1cc(O)c2c(c1)O[C@H](c1cc(O)c(O)c(O)c1)[C@H](O)C2` [epigallocatechin], the log was determined as 0.0562. With `Nc1ccn([C@H]2CC[C@@H](CO)O2)c(=O)n1` [zalcitabine], the log was found to be 0.106. Consider `CC(=O)c1ccc2c(c1)N(CCCN(C)C)c1ccccc1S2` [acepromazine maleate], for which the log is -0.0539. In the case of `CN(C)CCOC(C)(c1ccccc1)c1ccccn1` (configuration not stated) [doxylamine succinate], the log is -0.0953. In the case of `C=CCNC(N)=S` [allylthiourea], the log worked out at 0.0836. As for `Oc1c(I)cc(Cl)c2cccnc12` [clioquinol], the log is -1.58.

As for `C=CC(C1=CC(=O)C(OC)=CC1=O)c1ccc(OC)cc1` (configuration not stated) [4,4'-dimethoxydalbergione], the log amounted to 0.0664.

Turning to `CC(C)(C#N)c1cc(Cn2cncn2)cc(C(C)(C)C#N)c1` [anastrozole], the log stood at 0.0394. As to `COc1ccc(-c2cc(=O)c3c(O)c(OC)c(O[C@@H]4O[C@H](CO[C@@H]5O[C@@H](C)[C@H](O)[C@@H](O)[C@H]5O)[C@@H](O)[C@H](O)[C@H]4O)cc3o2)cc1` [pectolinarin], the log is -0.0135.

Turning to `O=C(C1CCCCC1)N1CC(=O)N2CCc3ccccc3C2C1` (configuration not stated) [praziquantel], the log was found to be 0.0779. On to `OC[C@H]1O[C@H](O[C@]2(CCl)O[C@H](CCl)[C@@H](O)[C@@H]2O)[C@H](O)[C@@H](O)[C@H]1Cl` [sucralose], for which the log was 0.186. Take `O=C(O)[C@@H](O)[C@H](O)[C@H](O)[C@@H](O)C(=O)O` [mucic acid]: the log was found to be 0.0267. With `CN1CCC(=C2c3ccccc3CCc3cccnc32)CC1` [azatadine maleate], the log is -0.00821. As for `Nc1nc2ccc(OC(F)(F)F)cc2s1` [riluzole], the log is -0.143.

Regarding `COc1ccc2c(c1)c(CC(=O)O)c(C)n2C(=O)c1ccc(Cl)cc1` [indomethacin], the log was determined as 0.00732. Take `CC1(C)C=Cc2c(c3c(c4c(=O)c(-c5ccc(O)c(O)c5)coc24)OC(C)(C)CC3)O1` [isopomiferin]: the log worked out at 0.0843. The figure for `CC(C)(C)NCC(O)COc1cccc2c1CCC(=O)N2` (configuration not stated) [carteolol hydrochloride] is -0.108; for `C=C1c2c(Cl)ccc(O)c2C(=O)C2=C(O)[C@]3(O)C(=O)C(C(N)=O)=C(O)[C@@H](N(C)C)[C@@H]3[C@@H](O)[C@H]12.O=C(O)c1cc(S(=O)(=O)O)ccc1O` [meclocycline sulfosalicylate] it is 0.0671; for `CC(=O)NCCCS(=O)(=O)O` [acamprosate calcium] it is -0.0343. The figure for `COc1ccc2c(c1OC)C(=O)O[C@@H]2[C@H]1c2c(cc3c(c2OC)OCO3)CCN1C` [noscapine hydrochloride] is -0.278; for `O=C(O)c1cc(/N=N/c2ccc(O)c(C(=O)O)c2)ccc1O` [olsalazine sodium] it is 0.0244.

Consider `CCOC(=O)O[C@]1(C(=O)COC(=O)CC)CC[C@H]2[C@@H]3CCC4=CC(=O)C=C[C@]4(C)[C@H]3[C@@H](O)C[C@@]21C` [prednicarbate], for which the log turned out to be 0.0621.

`CC(C(=O)O)c1ccc2c(c1)[nH]c1ccc(Cl)cc12` (configuration not stated) [carprofen]: the log was -0.000478. Consider `CO/N=C(\C(=O)N[C@@H]1C(=O)N2C(C(=O)O)=C(CSc3nnnn3C)CS[C@H]12)c1csc(N)n1` [cefmenoxime hydrochloride], for which the log was -0.132. Consider `O=C(O)C1CCCNC1` (configuration not stated) [nipecotic acid], for which the log was 0.0174. Take `O=C1c2c(O)cccc2C([C@@H]2O[C@H](CO)[C@@H](O)[C@H](O)[C@H]2O)c2cc(CO)cc(O)c21` (some centres not stated) [aloin]: the log turned out to be 0.0437.
